# Experimental data: paper doi:10.1101/2020.03.02.973057
# Results are given in words; binding and its absence hold for the method and conditions named. Binding seen in cells or lysates may run through a third protein. Here binding means that the protein was enriched with, or labelled near, the bait; the list need not be complete. No binding means not detected with the bait. For some of these results: Sequences can lack the tags named with a protein.
# Molecular target: T1, MKT1L-TAP (Trypanosoma brucei) (UniProt Q38C92)
# T1 sequence: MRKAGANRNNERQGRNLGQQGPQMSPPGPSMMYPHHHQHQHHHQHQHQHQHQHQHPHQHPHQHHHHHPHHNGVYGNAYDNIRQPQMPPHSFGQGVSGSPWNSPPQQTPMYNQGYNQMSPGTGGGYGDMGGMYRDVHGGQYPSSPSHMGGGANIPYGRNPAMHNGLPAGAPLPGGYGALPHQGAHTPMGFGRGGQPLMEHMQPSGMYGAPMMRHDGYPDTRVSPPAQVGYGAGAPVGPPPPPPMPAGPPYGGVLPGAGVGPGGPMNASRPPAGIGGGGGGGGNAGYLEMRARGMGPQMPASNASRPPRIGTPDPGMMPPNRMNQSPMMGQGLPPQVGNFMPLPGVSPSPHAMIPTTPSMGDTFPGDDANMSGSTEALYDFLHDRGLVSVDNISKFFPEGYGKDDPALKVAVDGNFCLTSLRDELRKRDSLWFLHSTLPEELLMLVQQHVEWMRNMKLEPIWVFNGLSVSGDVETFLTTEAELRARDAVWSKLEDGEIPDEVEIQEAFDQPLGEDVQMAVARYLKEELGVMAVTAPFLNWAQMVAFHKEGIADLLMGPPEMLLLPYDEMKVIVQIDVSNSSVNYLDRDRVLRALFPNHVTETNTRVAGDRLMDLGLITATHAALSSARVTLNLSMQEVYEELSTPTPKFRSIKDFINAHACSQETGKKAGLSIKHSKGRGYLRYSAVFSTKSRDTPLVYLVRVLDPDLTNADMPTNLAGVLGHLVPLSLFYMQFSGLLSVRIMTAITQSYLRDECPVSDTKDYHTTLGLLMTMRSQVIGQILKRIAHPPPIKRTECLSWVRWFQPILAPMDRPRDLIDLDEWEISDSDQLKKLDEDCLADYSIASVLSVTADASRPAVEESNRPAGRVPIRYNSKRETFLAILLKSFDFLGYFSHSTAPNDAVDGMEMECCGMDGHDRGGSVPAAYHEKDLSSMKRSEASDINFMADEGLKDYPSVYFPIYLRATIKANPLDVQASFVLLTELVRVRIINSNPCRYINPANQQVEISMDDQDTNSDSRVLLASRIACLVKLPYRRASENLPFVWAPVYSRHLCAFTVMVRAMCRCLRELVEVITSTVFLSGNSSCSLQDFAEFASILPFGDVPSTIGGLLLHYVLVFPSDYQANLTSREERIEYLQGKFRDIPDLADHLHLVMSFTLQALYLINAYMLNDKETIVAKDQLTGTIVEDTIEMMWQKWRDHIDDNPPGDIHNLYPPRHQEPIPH
# Test: affinity purification with mass spectrometry
row,Substance,binding
1,translation helicase eIF4A1 (from UniProt Q38F76),no binding

# Molecular target: T2, XAC1-TAP (eXpression ACtivator 1, Tb927.7.2780, with C-terminal tandem affinity purification tag) (Trypanosoma brucei) (UniProt Q57Y88)
# T2 sequence: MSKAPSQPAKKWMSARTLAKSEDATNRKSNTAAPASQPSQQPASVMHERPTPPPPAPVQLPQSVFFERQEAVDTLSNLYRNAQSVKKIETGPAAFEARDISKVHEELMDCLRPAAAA
# Test: affinity purification with mass spectrometry
row,Substance,binding
1,CFB2 (from UniProt Q4GYB3),binds
2,DHH1 (from UniProt Q38BK1),binds
3,DRBD2 (from UniProt Q38D54),binds
4,DRBD3/PTB1 (from UniProt Q38EA2),binds
5,EIF4E6 (from UniProt Q57V43),binds
6,EIF4G5 (from UniProt Q57VY5),binds
7,G5-IP,binds
8,PABP1,no binding
9,PUF6,binds
10,PUF9 (from UniProt Q4GYW2),binds
11,SKP1,binds
12,Tb927.8.1290 (from UniProt Q57VM6),binds
13,Tb927.10.15310,binds
14,ZC3H28,binds
15,ZC3H32 (from UniProt Q38B78),binds
16,initiation complex EIF4E3-G4,no binding
17,initiation complex EIF4E4-G3,no binding
18,translation helicase eIF4A1 (from UniProt Q38F76),binds
